These are yes or no findings as the source states them, for the method shown. Binding seen in cells or lysates may run through a third protein. Tags and fused reporters may be left off the sequences shown.
Molecular target: est2ΔCP-myc (S. cerevisiae) (UniProt Q06163)
Test: co-IP; Myc-tagged est2ΔCP immunoprecipitated from lysates of strains co-expressing Est2-HA; TLC1 RNA in the immunoprecipitate measured by qRT-PCR as a proxy for Est2-HA

B1: Est2-HA (wild type) (enzyme, UniProt Q06163 1-884)
chain: MKILFEFIQDKLDIDLQTNSTYKENLKCGHFNGLDEILTTCFALPNSRKIALPCLPGDLSHKAVIDHCIIYLLTGELYNNVLTFGYKIARNEDVNNSLFCHSANVNVTLLKGAAWKMFHSLVGTYAFVDLLINYTVIQFNGQFFTQIVGNRCNEPHLPPKWAQRSSSSSATAAQIKQLTEPVTNKQFLHKLNINSSSFFPYSKILPSSSSIKKLTDLREAIFPTNLVKIPQRLKVRINLTLQKLLKRHKRLNYVSILNSICPPLEGTVLDLSHLSRQSPKERVLKFIIVILQKLLPQEMFGSKKNKGKIIKNLNLLLSLPLNGYLPFDSLLKKLRLKDFRWLFISDIWFTKHNFENLNQLAICFISWLFRQLIPKIIQTFFYCTEISSTVTIVYFRHDTWNKLITPFIVEYFKTYLVENNVCRNHNSYTLSNFNHSKMRIIPKKSNNEFRIIAIPCRGADEEEFTIYKENHKNAIQPTQKILEYLRNKRPTSFTKIYSPTQIADRIKEFKQRLLKKFNNVLPELYFMKFDVKSCYDSIPRMECMRILKDALKNENGFFVRSQYFFNTNTGVLKLFNVVNASRVPKPYELYIDNVRTVHLSNQDVINVVEMEIFKTALWVEDKCYIREDGLFQGSSLSAPIVDLVYDDLLEFYSEFKASPSQDTLILKLADDFLIISTDQQQVINIKKLAMGGFQKYNAKANRDKILAVSSQSDDDTVIQFCAMHIFVKELEVWKHSSTMNNFHIRSKSSKGIFRSLIALFNTRISYKTIDTNLNSTNTVLMQIDHVVKNISECYKSAFKDLSINVTQNMQFHSFLQRIIEMTVSGCPITKCDPLIEYEVRFTILNGFLESLSSNTSKFKDNIILLRKEIQHLQAYIYIYIHIVN
Q: For B1, which binding is on record?
A: no binding

Reference: PMC4800423
